Some of the results follow. These are further read-outs of the screen, such as a control signal, another cell line or another target. No call is given for them. Most of these compounds were active or inconclusive in the main read-out, so they are no random draw. The note in brackets gives the kind of curve behind each potency; many fits are weak.
Assay: qHTS Assay for Lipid Storage Modulators in Drosophila S3 Cells;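 as to cell number change: cells counted by Cell Tracker Red CMTPX staining in the red channel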
Conditions: BODIPY lipid droplet fluorescence, 18-24 h; for cell number change: measured here: cell count max response, cells fed with added oleic acid
Method in brief: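 Drosophila S3 cells loaded with oleic acid (400 uM, as added) and compounds at several concentrations; lipid droplets imaged by 488-nm laser-scanning cytometry, 500–530 nm intensity and object ratio to cell channel. Percent activity normalized to 20 uM Triacsin C.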

[1] = measured here: lipid fluorescence (Fed channel) AC50, cells fed with added oleic acid
[2] = measured here: cell number channel AC50, cells fed with added oleic acid

O=C(O)CC[C@@H](C(=O)O)N1C(=O)c2ccccc2C1=O
cell number change: -16.2% | AC50 [1]: 16.4 µM [rising, single point]

Cn1nc([N+](=O)[O-])nc1Oc1ccc(C(C)(C)C)cc1
cell number change: -11.1%

CCNC(=O)COc1cccc(C(=O)NCc2ccccc2)c1
cell number change: 6.33% | AC50 [1]: 8.2 µM [falling, single point]

CCN(CC)CCCN(C(=O)c1cccc(C)c1)c1nc(-c2ccc(OC)cc2)cs1
cell number change: 1.46% | AC50 [1]: 29.1 µM [falling, single point]

CN(C)c1ccc(/C=N/N(CCC(=O)NC(C)(C)C)C2=NS(=O)(=O)c3ccccc32)cc1
cell number change: 17.6% | AC50 [1]: 2.59 µM [falling, full curve, poor fit]

CCOc1ccc(N2CC(C(=O)N3CCc4ccccc43)CC2=O)cc1 (stereo not given)
cell number change: 6.31%

O=C(OC(C(=O)NCC1CCCO1)c1ccccn1)c1cccs1 (stereo not given)
cell number change: 8.46% | AC50 [1]: 29.1 µM [rising, single point]

Oc1ccc(Nc2nc(-c3ccc4ccccc4c3)cs2)cc1
cell number change: -55.9%

CC(OC(=O)c1ccc2c(c1)OCCO2)C(=O)c1ccccc1 (stereo not given)
cell number change: 125% | AC50 [2]: 20.6 µM [rising, single point]

COc1ccc(C(=O)N2CCN=C2SCc2cccnc2)c(OC)c1
cell number change: -11.5% | AC50 [1]: 4.11 µM [falling, single point]

N#CCC(=O)N/N=C\c1ccc(OC/C=C/c2ccccc2)cc1
cell number change: -2.48% | AC50 [2]: 6.51 µM [rising, single point] | AC50 [1]: 11.6 µM [falling, single point]

O=C(Nc1ccccc1)N1CCN(c2cccc(C(F)(F)F)c2)CC1
cell number change: -12.1% | AC50 [1]: 20.6 µM [rising, partial curve]

S=c1[nH]nc(COc2ccccc2)n1/N=C/c1ccc(Br)s1
cell number change: -25.4% | AC50 [1]: 0.164 µM [falling, full curve, poor fit]

O=C(O)Cn1nc(C(F)(F)F)c2c1CCCC2
cell number change: -50.7% | AC50 [2]: 5.8 µM [falling, partial curve, poor fit] | AC50 [1]: 0.366 µM [falling, partial curve, poor fit]

CCCCCC(=O)Nc1cc(S(=O)(=O)N2CCOCC2)ccc1Oc1ccc(OCC)cc1
cell number change: 2.45% | AC50 [2]: 3.26 µM [rising, single point]

O=C(NCc1ccco1)c1ccccc1O
cell number change: 34.4% | AC50 [2]: 9.2 µM [rising, partial curve, poor fit] | AC50 [1]: 29.1 µM [rising, single point]

COc1ccccc1/C=C(/C(=O)OCC(=O)Nc1ccc(N(C)C)cc1)c1ccccc1
cell number change: -0.235% | AC50 [1]: 0.651 µM [falling, partial curve, poor fit]

Cc1ccc(N2C(=S)N=C(Nc3ccccc3C)C23CCOC(C)(C)C3)cc1 (stereo not given)
cell number change: -24.3% | AC50 [1]: 32.6 µM [falling, single point]

CCCN(CC1CC1)C(=O)CSc1ncnc2sc(C)c(C)c12
cell number change: 113% | AC50 [1]: 0.731 µM [falling, single point]

CC(Oc1ccc2c3c(c(=O)oc2c1)CCC3)C(=O)NCCCn1ccnc1 (stereo not given)
cell number change: -13.4% | AC50 [1]: 29.1 µM [falling, single point]

Cc1ccc(-c2cc(-c3ccccc3)[nH]c(=S)c2C#N)cc1
cell number change: 32.4% | AC50 [2]: 29.1 µM [rising, single point]

O=C(CSc1ncc(-c2ccc(F)cc2)n1Cc1ccco1)Nc1ccc2c(c1)OCO2
cell number change: 7.37% | AC50 [2]: 0.164 µM [rising, full curve] | AC50 [1]: 0.291 µM [rising, partial curve, poor fit]

c1ccc(CCCNc2ncnc3nc[nH]c23)cc1
cell number change: -15.8% | AC50 [1]: 29.1 µM [falling, single point]

CN(CC(=O)Nc1ccc(S(=O)(=O)N2CCCC2)cc1)Cc1ccc(Cl)c(Cl)c1
cell number change: -50% | AC50 [2]: 2.91 µM [falling, full curve, poor fit] | AC50 [1]: 18.4 µM [falling, partial curve, poor fit]

CCCC1=Nc2cc(C(=O)N3CCC(C(N)=O)CC3)ccc2Sc2ccccc21
cell number change: -1.15% | AC50 [1]: 0.82 µM [falling, single point]

COc1ccc(NC(=O)CN(C)C(=O)Cc2ccc(S(=O)(=O)N3CCOCC3)s2)cc1
cell number change: -50% | AC50 [2]: 29.1 µM [falling, single point] | AC50 [1]: 29.1 µM [rising, single point]

CCc1nnc(NC(=O)c2cccc(S(=O)(=O)N3CCc4ccccc43)c2)s1
cell number change: 2.76%

COc1ccc(NC(=O)c2ccco2)cc1NC(=O)c1cccc(F)c1
cell number change: 10.1% | AC50 [1]: 10.3 µM [falling, partial curve]

O=C(c1cc(-c2ccccn2)nc2ccc(Cl)cc12)N1CCN(CCc2ccccc2)CC1
cell number change: 16.9% | AC50 [1]: 0.731 µM [rising, single point]

CCCCOC(=O)c1c(C)oc2ccc(NS(=O)(=O)c3ccc4c5c(cccc35)C(=O)N4)cc12
cell number change: 45.6% | AC50 [2]: 29.1 µM [rising, single point] | AC50 [1]: 6.51 µM [rising, single point]

O=C(NCC1CCCO1)c1cc2n(n1)C(C(F)(F)F)CC(c1ccc(Br)cc1)N2 (stereo not given)
cell number change: 16.2% | AC50 [1]: 23.1 µM [rising, single point]

O=C(c1nsnc1-c1ccccc1O)N1CCCCC1
cell number change: -82.7% | AC50 [2]: 32.6 µM [falling, single point]

Cc1cc2n(n1)C(c1ccccc1)Nc1ccccc1-2 (stereo not given)
AC50 [1]: 20.6 µM [rising, partial curve]

CCCn1nc([N+](=O)[O-])c(C(C#N)c2nc3ccccc3o2)c(Cl)c1=O (stereo not given)
cell number change: 20.1% | AC50 [1]: 23.1 µM [rising, single point]

C#CCOCCOCCOCCNc1nc(N2CCN(C(=O)CCCCCCCCCCNC(=O)[C@H]([C@@H](C)CC)n3cc(CCCCCN)nn3)CC2)nc(N2CCN(C(=O)CCCCCCCCCCNC(=O)[C@@H]([C@H](C)CC)n3cc(CCCCCN)nn3)CC2)n1
cell number change: -94.3% | AC50 [2]: 23.1 µM [falling, partial curve] | AC50 [1]: 23.1 µM [falling, partial curve, poor fit]

CCOC(=O)N1CCN(CC(O)COC2CC(C)CC(C)(C)C2)CC1 (stereo not given)
cell number change: 9.21% | AC50 [1]: 14.6 µM [rising, partial curve]

CC(=O)OC[C@H]1O[C@@H](n2ccc(=O)[nH]c2=S)C(OC(C)=O)C1OC(C)=O (stereo not given in full)
cell number change: 4.84%

O=C(CC(=O)Nc1ccc(F)cc1)Nc1ccc(F)cc1
AC50 [2]: 3.66 µM [rising, partial curve]

COc1ccc2c(c1OC)c(=O)n1c3ccc(OC(C)C(=O)NCCN4CCOCC4)cc3c3ccnc2c31 (stereo not given)
cell number change: 8.41%

Cc1ccc(S(=O)(=O)NC2=NCN(CCc3ccccc3)CN2)cc1
cell number change: 23.9%

O=C(Nc1ccnn1C1CCN(Cc2cccc(F)c2F)CC1)C1CCCC1
cell number change: 6.94% | AC50 [1]: 2.31 µM [rising, single point]

CC(C)=N/N=c1\scc(C)n1Cc1ccco1
cell number change: 7.94% | AC50 [1]: 18.4 µM [rising, single point]

CCc1nc2c(c(SC)nn2-c2ccccc2)c(N)c1C(=O)OC
cell number change: 10.3%

O=C(COC(=O)c1nc(Cl)c(Cl)c(Cl)c1Cl)c1ccc[nH]1
AC50 [2]: 0.326 µM [falling, full curve, poor fit] | AC50 [1]: 11.6 µM [falling, partial curve, poor fit]

Cc1ccc(-n2ncc3c(=O)n(CC(=O)N4CCN(C(=O)c5ccco5)CC4)cnc32)cc1
cell number change: -5.84% | AC50 [1]: 18.4 µM [rising, partial curve]

CCCCCCCCCCOC(=O)Cn1c(COc2ccccc2OC)[n+](C)c2ccccc21
cell number change: -53.8% | AC50 [2]: 2.06 µM [falling, full curve] | AC50 [1]: 5.8 µM [falling, partial curve]

Cc1ccc(C(=O)N2CCCC2)c(F)c1F
cell number change: 12.9%

Cc1ccc(S(=O)(=O)Nc2nc3c(s2)C(=O)CC(C)(C)C3)cc1
cell number change: 33.7% | AC50 [2]: 2.06 µM [rising, partial curve, poor fit] | AC50 [1]: 32.6 µM [rising, single point]

Cc1cc(Cl)ccc1NC(=S)Nc1cccnc1
cell number change: -12.7% | AC50 [1]: 1.64 µM [falling, partial curve, poor fit]

COc1cc2c(O)c3c(c(-c4ccc5c(c4)OCO5)c2cc1OC)C(=O)OC3
cell number change: -26.2% | AC50 [1]: 9.2 µM [falling, partial curve, poor fit]

COc1ccccc1N1CCN(C(=O)CCS(=O)(=O)c2ccc3c(c2)NC(=O)C(C)S3)CC1 (stereo not given)
cell number change: 4.59% | AC50 [1]: 6.51 µM [rising, single point]

O=C(Nc1cc(-c2nc3ncccc3o2)ccc1Cl)c1ccc([N+](=O)[O-])o1
cell number change: 15.2% | AC50 [1]: 29.1 µM [falling, single point]

CCOC(=O)c1cc(S(=O)(=O)N(C)Cc2ccccc2)cn1C
cell number change: 17.5% | AC50 [1]: 16.4 µM [falling, partial curve, poor fit]

O=C(Nc1ccc(N2CCN(C(=O)c3cccs3)CC2)cc1)c1ccc(Br)o1
cell number change: 22.4% | AC50 [1]: 0.731 µM [rising, single point]

O=C(CCCN1C(=O)c2ccccc2C1=O)NC1=NCCS1
cell number change: 5.37%

CCOc1ccccc1Nc1cc2n(c(=O)n1)CCc1cc(OC)c(OC)cc1-2
cell number change: -2.41% | AC50 [1]: 0.00651 µM [falling, full curve, poor fit]

Cc1ccc(-n2c(COc3ccccc3)n[nH]c2=S)cc1
cell number change: 67.3% | AC50 [2]: 18.4 µM [rising, single point] | AC50 [1]: 20.6 µM [rising, single point]

Cc1nc2ccc(NC(=O)c3cccs3)cc2s1
cell number change: -6.39% | AC50 [1]: 0.224 µM [falling, full curve, poor fit]
